Measurements as given in US20020107363A1.
No constants are given. Whether binding was seen depends on the method and setting. Some binding calls cover weakened binding; strength is not graded here.

Protein sequences, listed by entry. Tags and fused reporters are not part of them. Residues count along the entry.
UniProt Q9JHJ8, residues 47-269: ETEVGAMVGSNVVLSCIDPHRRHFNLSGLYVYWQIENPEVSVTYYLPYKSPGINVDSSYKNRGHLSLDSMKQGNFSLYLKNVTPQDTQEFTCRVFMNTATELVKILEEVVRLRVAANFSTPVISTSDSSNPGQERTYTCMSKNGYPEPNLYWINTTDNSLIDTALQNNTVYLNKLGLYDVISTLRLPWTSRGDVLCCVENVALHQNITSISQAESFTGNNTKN

Biological target: T1, mCRP1/ICOS expressed on CHO D-cells (clone 1.41) (murine) (UniProt Q9WVS0)
T1 sequence (looked up): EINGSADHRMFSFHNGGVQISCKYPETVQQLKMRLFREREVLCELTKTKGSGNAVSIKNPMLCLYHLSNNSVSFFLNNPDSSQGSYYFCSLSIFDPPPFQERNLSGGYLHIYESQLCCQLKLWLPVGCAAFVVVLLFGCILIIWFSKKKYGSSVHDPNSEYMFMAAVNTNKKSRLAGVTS
Assay: FACS on mCRP1/ICOS-transfected CHO D-cells, anti-human IgG Fc-FITC detection

binding: binds
Substance: murine B7rp-1/Fc fusion protein (from UniProt Q9JHJ8 47-269)
